These results are taken from publication PMC12274486, “A glyoxal-specific aldehyde signaling axis in Pseudomonas aeruginosa that influences quorum sensing and infection” (Nature Communications, 2025).

No constants are given. Whether binding was seen depends on the method and setting. Some entries that bind do so weakly or less than the wild type. Where a sequence is shown, tags or fusion partners need not be part of it.

The test addresses ArqI superfolder GFP fusion, wild type (Pseudomonas aeruginosa MPAO1). Briefly: FRAP (fluorescence recovery after photobleaching); sfGFP fusions in live P. aeruginosa cells on agarose pads, 0.02% arabinose, 23 °C; effective diffusion constants.

B1: ArqI superfolder GFP fusion, wild type (protein)
chain: MTYHVLVQFDVPSDKREAFAAAGLFDANGSLQNEPGTLRFEVIRDENNRNRFYLDEVYEDEAAFLQHCRNETIARFYELIDSYAFGPLFLFKGYRVEG
As to B1, the binding entry is “binds”.
